# Laboratory results as given in patent US20160279215A1, “NOVEL PEPTIDES AND COMBINATION OF PEPTIDES FOR USE IN IMMUNOTHERAPY AGAINST VARIOUS TUMORS” (immatics biotechnologies GmbH, priority 2015, published 2016).
# Assay: Identification and label-free relative LC-MS quantitation of HLA-presented peptides on tumor and normal tissue samples (XPRESIDENT presentation profiles)
# Set-up: species or system human
# Settings: for Additional entities of particular interest (presentation of selected peptides across entities): tumor entities on which the HLA-presented peptide was found, entity abbreviations defined in the title of Table 4B; for Entities of particular interest: entities where the peptide was over-presented on cancer samples compared to normal tissues
Substance,Additional entities of particular interest (presentation of selected peptides across entities),Entities of particular interest
192 (TLLPSSGLVTL; listed as Homo sapiens) [compound 192],BRCA,–
193 (ALFHMNILL; listed as Homo sapiens) [compound 193],NSCLC,–
194 (KLLEEVQLL; listed as Homo sapiens) [compound 194],NSCLC,–
195 (VIIQNLPAL; listed as Homo sapiens) [compound 195],CRC,–
196 (TLHQWIYYL; listed as Homo sapiens) [compound 196],CRC,–
200 (IMPTFDLTKV; listed as Homo sapiens) [compound 200],HCC,–
201 (LLFSLLCEA; listed as Homo sapiens) [compound 201],BPH,–
203 (FLFVDPELV; listed as Homo sapiens) [compound 203],"CRC, AML, NHL","NSCLC, GC, OC"
204 (SEWGSPHAAVP; listed as Homo sapiens) [compound 204],PPC,–
205 (LAFGYDDEL; listed as Homo sapiens) [compound 205],HCC,–
206 (GLDAFRIFL; listed as Homo sapiens) [compound 206],CRC,–
208 (HLNNDRNPL; listed as Homo sapiens) [compound 208],BPH,–
210: peptide found in SLC22A2 (gene looked up) (GLAGDNIYL; listed as Homo sapiens) [compound 210],RCC,–
211 (LLTTVLINA; listed as Homo sapiens) [compound 211],RCC,–
212 (MTLSEIHAV; listed as Homo sapiens) [compound 212],CRC,–
213 (ILAVDGVLSV; listed as Homo sapiens) [compound 213],"NSCLC, BRCA, MEL",–
214 (ALFETLIQL; listed as Homo sapiens) [compound 214],HCC,–
215 (QIADIVTSV; listed as Homo sapiens) [compound 215],HCC,–
216 (ALSTVTPRI; listed as Homo sapiens) [compound 216],HCC,–
217 (LLWPSSVPA; listed as Homo sapiens) [compound 217],"GB, MEL, AML",–

Substance,Additional entities of particular interest (presentation of selected peptides across entities),Entities of particular interest
220 (ALSELERVL; listed as Homo sapiens) [compound 220],"BPH, UTC",–
221 (IMLNSVEEI; listed as Homo sapiens) [compound 221],"BPH, NHL",–
222 (LLTGVFAQL; listed as Homo sapiens) [compound 222],"CLL, UTC, BRCA, CRC, NHL",–
223 (ALHPVQFYL; listed as Homo sapiens) [compound 223],"OC, CRC",–
224 (LLFDWSGTGRADA; listed as Homo sapiens) [compound 224],GBC_CCC,–
225 (FLPQPVPLSV; listed as Homo sapiens) [compound 225],"CLL, MEL, NHL",–
227 (SEMEELPSV; listed as Homo sapiens) [compound 227],HCC,–
228 (SLLELDGINLRL; listed as Homo sapiens) [compound 228],NSCLC,–
229 (YLYELEHAL; listed as Homo sapiens) [compound 229],–,"NSCLC, OC"
230 (KLLNMIFSI; listed as Homo sapiens) [compound 230],BPH,–
231 (LLDDIFIRL; listed as Homo sapiens) [compound 231],MEL,–
233 (SLFESLEYL; listed as Homo sapiens) [compound 233],"UTC, RCC","NSCLC, OSCAR, OC"
236 (KMSELQTYV; listed as Homo sapiens) [compound 236],"GC, BPH, CLL, OSCAR, SCLC, UBC, UTC, BRCA, GBC_CCC, RCC, AML, NHL","GB, NSCLC, HCC, OC, MEL, CRC, PC"
237 (ALLEQTGDMSL; listed as Homo sapiens) [compound 237],"SCLC, UBC, BRCA, AML, NHL","NSCLC, OC, MEL, CRC"
238 (HLQEKLQSL; listed as Homo sapiens) [compound 238],HCC,–
241 (KQFEGTVEI; listed as Homo sapiens) [compound 241],"CLL, NHL","NSCLC, MCC, OC, CRC, PC, OSCAR"
243 (GLAEFQENV; listed as Homo sapiens) [compound 243],"CLL, SCLC, UBC, UTC, BRCA, GBC_CCC, MEL, AML, NHL","GB, NSCLC, HCC, OC, CRC, PC, OSCAR"
244 (NVAEIVIHI; listed as Homo sapiens) [compound 244],–,"GC, NSCLC"
251 (LLWGNLPEI; listed as Homo sapiens) [compound 251],"CLL, SCLC, UTC, GBC_CCC, AML, NHL","NSCLC, MEL, CRC, PC, OC"
254 (ALGDKFLLRV; listed as Homo sapiens) [compound 254],NHL,"NSCLC, HCC, MEL, OC"

Substance,Additional entities of particular interest (presentation of selected peptides across entities),Entities of particular interest
255 (FLMKNSDLYGA; listed as Homo sapiens) [compound 255],"UBC, UTC, GBC_CCC, AML, NHL","NSCLC, HCC, MEL, PC, OSCAR"
256 (FLNDIFERI; listed as Homo sapiens) [compound 256],"UTC, MEL, AML, NHL","NSCLC, HCC, CLL, OC"
257 (KLIDHQGLYL; listed as Homo sapiens) [compound 257],–,"NSCLC, OC, CRC, OSCAR"
258 (QLVQRVASV; listed as Homo sapiens) [compound 258],"UBC, NHL","NSCLC, OC"
259 (GPGIFPPPPPQP; listed as Homo sapiens) [compound 259],–,"NSCLC, BPH, OSCAR, OC"
260 (ALNESLVEC; listed as Homo sapiens) [compound 260],"SCLC, UBC, UTC, CRC, AML, NHL","NSCLC, MEL, OSCAR, OC"
261 (GLAALAVHL; listed as Homo sapiens) [compound 261],"GC, CLL, SCLC, UBC, UTC, BRCA, GBC_CCC, AML, NHL","NSCLC, OC, MEL, CRC, PC, OSCAR"
262 (LLLEAVWHL; listed as Homo sapiens) [compound 262],"BRCA, NHL","NSCLC, CRC"
263 (SIIEYLPTL; listed as Homo sapiens) [compound 263],"CLL, OSCAR, OC, SCLC, UBC, GBC_CCC, AML, NHL","NSCLC, MEL, PC"
265 (FLLDKPQDLSI; listed as Homo sapiens) [compound 265],GBC_CCC,"NSCLC, OC, RCC"
266 (FLLDKPQDL; listed as Homo sapiens) [compound 266],–,"RCC, OC"
272 (FVMEGEPPKL; listed as Homo sapiens) [compound 272],"CLL, UTC","NSCLC, OC"
273 (SLNKQIETV; listed as Homo sapiens) [compound 273],AML,"NSCLC, OC"
275 (AVPPPPSSV; listed as Homo sapiens) [compound 275],"NSCLC, HCC",–
276 (RMPTVLQCV; listed as Homo sapiens) [compound 276],BPH,–
279 (VLMDEGAVLTL; listed as Homo sapiens) [compound 279],"CLL, CRC, NHL",–
280 (HLWGHALFL; listed as Homo sapiens) [compound 280],HCC,–
281 (LLLESDPKVYSL; listed as Homo sapiens) [compound 281],"OSCAR, SCLC","PC, OC"
282 (SLYALHVKA; listed as Homo sapiens) [compound 282],"OC, SCLC",–
283 (ALSELLQQV; listed as Homo sapiens) [compound 283],"NSCLC, HCC, OC, SCLC, UTC, MEL, CRC, AML, NHL",–
